# From PubChem BioAssay AID1347423 (Functional Genomics Laboratory (NCATS/FGL), 2020)
# Hit rate of the full screen: of about 52,000 sequences, about 210 (0.4%) were called active.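 The calls were made as follows: active = gene whose silencing raises cell survival under the drug, median off-target-corrected z-score across its silencing RNAs 2 or more; inactive = the rest.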 The list shows a part of the results.
# Assay: Resistance to Poly (ADP-Ribose) Polymerase inhibitor: Gene Identification via Genome-wide siRNA Screen
# Details: mouse BRCA2 R2336H ES cells, olaparib, CellTiter-Glo viability; active compounds read high
# Procedure, shortened: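 Genome-wide siRNA screen (3 siRNAs/gene, 20 nM) in mouse ES cells carrying hypomorphic BRCA2 R2336H; olaparib 500 nM added 48 h post-transfection, CellTiter-Glo viability 72 h later. Normalized to plate-median negative control; MAD z-scores, gene median, seed-adjusted.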
row,Sequence,z-score
1,CCCGCUUUUUUUUCUGGACTT against Ndufa8,inactive: 0.546
2,CGGCGAUGAGAUUUUCCAUTT against H2-Ea,inactive: -0.152
3,CGAUGGUGGUUCUUAUUUUTT against Otx1,inactive: 0.97
4,CGACUAAGGAUGAAAAGCATT against Apbb1ip,inactive: -1.57
5,GGUCAUCAGUGAUCAGUCATT against Mre11a,inactive: -0.33
6,GGAUGUACUAGCUGAGAUUTT against A730016F12Rik,inactive: 0.513
7,GGGACUGUACAACCACUCUTT against En1,inactive: -1.01
8,GGUUGUGCAACACAGCUCUTT against Olfr218,inactive: -0.161
9,GGAAGUGCUAUUAAUUGUUTT against 4631402N15Rik,inactive: 0.234
10,GGACCUGAAUUCCACUCCUTT against Socs1,inactive: 0.722
11,GGUUAUUUCUCUCUCCCUATT against Creld1,inactive: -0.155
12,GGCAAUGGGAAAAUCGUGUTT against Gp5,inactive: 0.546
13,CCGAAUGGAAUACCAAAUUTT against Cst8,inactive: -0.186
14,GGAGGUAAUUACAUAAUGGTT against 9930022D16Rik,inactive: 0.704
15,GGGAAGGACUGUAAGAAAATT against 2900024C23Rik,inactive: 0.862
16,GGGUUUUUGUUAGAUGUUATT against Rab3b,inactive: 0.437
17,GCCCUAGGAGGAACUGAGUTT against Olfr458,inactive: -2.63
18,GGUGGCAAAGUGGUGAUCCTT against Fabp7,inactive: 0.724
19,GCUUUGGUUGCUAACCCAATT against Matp,inactive: 1.39
20,CCACUGACAUUCCUAUUAUTT against Capn6,inactive: -1.21
21,CCUCACUAAGUGAGCCUUCTT against 4930543L23Rik,inactive: -0.841
22,GGUGAAAAAAACAGGAUCCTT against Wnt11,inactive: 1.06
23,GGAUCUUCGUACUAGAGGCTT against Stra13,inactive: 0.118
24,GGAAAAGGUGUCUUCCGUGTT against Crybb2,inactive: 0.609
25,GGCCUAAAUGUGGAUUUUGTT against Phf6,inactive: 0.853
26,CCAUAUCUUUAGCUCCACATT against Gm191,inactive: 0.199
27,GGAAGCUGUUUGAACUCGCTT against C330016O16Rik,inactive: 1.16

# Shown tab-delimited: entries from further up.
row	Sequence	z-score
4	CGACUAAGGAUGAAAAGCATT against Apbb1ip	inactive: -1.57
5	GGUCAUCAGUGAUCAGUCATT against Mre11a	inactive: -0.33
